The other results are listed elsewhere or left out. This data set is noisy: repeats of one test often differ as much as different tests do.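 Fusion between ACE2-bearing and full-length-spike-bearing U2OS cells was measured by imaging as the percentage of nuclei with both cell types' fluorescent markers. An inhibitory hit is a non-toxic compound whose fusion z-score is below -3, more than three standard deviations beneath the plate's DMSO wells.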

Consider 34 molecules from the supplement of paper PMC8104966.

In this assay the test system is U2OS ACE2 x SARS-CoV-2 spike co-culture. Briefly: cell-cell fusion (fraction fused) z-score vs plate DMSO control; higher = more fusion. As to conditions: 30 µM; 5 h; toxicity class: non-toxic, passed QC.
With `CC(=O)O[C@@]1(C(C)=O)CC[C@H]2[C@@H]3C=C(C)C4=CC(=O)CC[C@]4(C)[C@@H]3CC[C@@]21C` [Megestrol Acetate], the “cell-cell fusion (z-score)” value is inactive: 1.42. Take `C/C(=C\C(=O)Nc1ccccc1C(=O)O)c1ccc2ccccc2c1`: the “cell-cell fusion (z-score)” value was inactive: -1.23. As for `CC(C)N(CCC(C(N)=O)(c1ccccc1)c1ccccn1)C(C)C` (centres undefined) [Disopyramide], the “cell-cell fusion (z-score)” value is inactive: 2.02. Under `CC(C)(N)CO.Cn1c(=O)c2[nH]c(Br)nc2n(C)c1=O` stands inactive: 2.49. Under `COc1c(-c2ccccc2)oc2cc(O)cc(O)c2c1=O` stands inactive: 2.87. Next, `CS(=O)(=O)N1CCc2c(-c3cnc(N)nc3)nc(N3CCOCC3)nc21`: inactive: 1.29; `CC(C)(C(=O)c1cccnc1)c1cccnc1`: inactive: 2.78; `CC(C)c1nc(N(C)S(C)(=O)=O)nc(-c2ccc(F)cc2)c1/C=C/[C@@H](O)C[C@@H](O)CC(=O)O` [Rosuvastatin]: inactive: -1.18. As for `CC1(C)C=Cc2c(c3c(c4c(=O)c(-c5ccc(O)cc5)coc24)OC(C)(C)CC3)O1`, the “cell-cell fusion (z-score)” value is inactive: 1.27. Regarding `C#C[C@]1(O)CC[C@H]2[C@@H]3CCC4=CC(=O)CC[C@@H]4[C@H]3CC[C@@]21CC` [Levonorgestrel], the “cell-cell fusion (z-score)” value was inactive: 2.14.

On to `Cl.O=C1CN2Cc3c(ccc(Cl)c3Cl)N=C2N1`, for which the “cell-cell fusion (z-score)” value was inactive: -0.473. Under `CC1CCC2(OC1)OC1CC3C4CC[C@H]5C[C@@H](O)CC[C@]5(C)C4CC(=O)[C@]3(C)C1C2C` (some centres undefined) stands inactive: 2.42. Regarding `CN(C(=O)CN(CCO)CC(=O)N(C)C(C)(C)Cc1ccccc1)C(C)(C)Cc1ccccc1`, the “cell-cell fusion (z-score)” value is inactive: 0.483.

With `CC(C)=CCc1c2c(c3occ(-c4ccc(O)cc4)c(=O)c3c1O)C=CC(C)(C)O2`, the “cell-cell fusion (z-score)” value is inactive: 3.04.

Turning to `O=NN(CCCl)C(=O)NC1CCCCC1` [Lomustine], the “cell-cell fusion (z-score)” value is inactive: 2.51. For `O=c1oc2cc(O)ccc2s1`, the “cell-cell fusion (z-score)” value is inactive: 1.29.

For the molecule `COc1cc(O)c(C(=O)/C=C/c2ccc(OC)c(O)c2)c(OC)c1`, the “cell-cell fusion (z-score)” value was inactive: 2.14. Next, `C[C@]12CCC(=O)C=C1CC[C@@H]1[C@@H]2CC[C@@]2(C)[C@H]1CC[C@]2(O)C(=O)CO` [Cortexolone]: inactive: 1.37. Regarding `COc1ccc(COc2cc3oc(=O)c4cc(C(C)O)ccc4c3cc2OC)cc1` (centres undefined) [Palomid 529], the “cell-cell fusion (z-score)” value is inactive: 1.53. Under `COc1ccc2nc(SCc3ncc(C)c(OC)c3C)[nH]c2c1` [Omeprazole sulfide] stands inactive: 2.48. Under `N=C([NH3+])N1CCc2ccccc2C1.N=C([NH3+])N1CCc2ccccc2C1.O=S(=O)([O-])[O-]` [Debrisoquin sulfate] stands inactive: 1.08; under `CCn1c(-c2nonc2N)nc2cnc(Oc3cccc(NC(=O)c4ccc(OCCN5CCOCC5)cc4)c3)cc21`, inactive: -2.39. As for `NC[C@@H]1O[C@H](O[C@H]2[C@@H](O)[C@H](O[C@@H]3[C@@H](O)[C@H](N)C[C@H](N)[C@H]3O[C@H]3O[C@H](CN)[C@@H](O)[C@H](O)[C@H]3N)O[C@@H]2CO)[C@H](N)[C@@H](O)[C@@H]1O.O=S(=O)(O)O.O=S(=O)(O)O.O=S(=O)(O)O` [Neomycin sulfate], the “cell-cell fusion (z-score)” value was inactive: 3.61.

For the molecule `COc1cc(Cc2cnc(N)nc2N)cc(OC)c1OC`, the “cell-cell fusion (z-score)” value is inactive: 2.21.

Take `Cc1cc(O)c(C(=O)N[C@@H](C(=O)N[C@@H]2C(=O)N3C(C(=O)O)=C(CSc4nnnn4C)CS[C@H]23)c2ccc(O)cc2)cn1` [Cefpiramide acid]: the “cell-cell fusion (z-score)” value was inactive: 2.96. Under `O=[N+]([O-])c1ccc(CNc2nc(NCc3cccc(C(F)(F)F)c3)nc3[nH]cnc23)cc1` stands active: -3; under `Cn1cc[nH]c1=S` [Methimazole], inactive: 3.28. Under `CCCCCCOC(=O)/N=C(\N)c1ccc(NCc2nc3cc(C(=O)N(CCC(=O)OCC)c4ccccn4)ccc3n2C)cc1.CS(=O)(=O)O` stands inactive: 0.941.

As for `Cc1cnc(C(=O)NCCc2ccc(S(=O)(=O)NC(=O)NC3CCCCC3)cc2)cn1` [Glipizide], the “cell-cell fusion (z-score)” value is inactive: 4.3. Consider `CCOC(=O)N[C@@H]1CC[C@@H]2[C@@H](C1)C[C@H]1C(=O)O[C@H](C)[C@H]1[C@H]2/C=C/c1ccc(-c2cccc(F)c2)cn1.O=S(=O)(O)O` [Vorapaxar sulfate], for which the “cell-cell fusion (z-score)” value is active: -5.27. Under `Cc1ccc(NC(=O)C2(c3ccc4c(c3)OC(F)(F)O4)CC2)nc1-c1cccc(C(=O)O)c1` [Lumacaftor] stands inactive: 3.8; under `CCOc1ccc(C(=O)c2ccc(O)c(O)c2O)cc1`, inactive: 1.19; under `COc1cc([C@@H]2c3cc4c(cc3[C@H](O)[C@H]3COC(=O)[C@@H]23)OCO4)cc(OC)c1OC`, inactive: -0.222. Under `O=C1C[C@@H](c2ccc(O)cc2)Oc2cc(O)cc(O)c21` stands inactive: 2.58.
